# Laboratory results from PubChem BioAssay AID2685 (National Center for Advancing Translational Sciences (NCATS), 2010).
# Some of the results follow. The main result of the screen is listed elsewhere. These columns were measured beside it and carry no call. Most of these compounds were active or inconclusive in the main read-out, so they are no random draw. The note in brackets gives the kind of curve behind each potency; many fits are weak.
# Experiment: qHTS Assay for Lipid Storage Modulators in Drosophila S3 Cells;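 as to cell number change: cells counted by Cell Tracker Red CMTPX staining in the red channel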
# Settings: BODIPY lipid droplet fluorescence, 18-24 h; for cell number change: measured here: cell count max response, cells fed with added oleic acid
# Procedure, shortened: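 Laser-scanning cytometry quantifies lipid droplet accumulation (500–530 nm total intensity; droplet/cell object ratio) in oleic acid-fed (400 uM added) Drosophila S3 cells treated with a concentration series. 20 uM Triacsin C defined 100% inhibition.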
# [1] = measured here: lipid fluorescence (Fed channel) AC50, cells fed with added oleic acid
# [2] = measured here: cell number channel AC50, cells fed with added oleic acid
smiles,measurement,setting,value
O=C(CSc1nncn1-c1ccccc1)Nc1ccccc1F,cell number change,,12.2%
same,AC50,[1],"0.206 µM [rising, single point]"
Cc1cccc(C)c1NC(=O)CSc1nnc(-c2ccoc2C)n1C,cell number change,,5.12%
same,AC50,[2],"2.31 µM [rising, partial curve, poor fit]"
CCCCNC(=O)CCn1c(=O)c2ccccc2n(Cc2ccc(Cl)cc2)c1=O,AC50,[2],"0.146 µM [rising, full curve, poor fit]"
CC(=O)Nc1ccc(/C=N/NC(=S)NC(C)C)cc1,cell number change,,32.5%
same,AC50,[1],"11.6 µM [rising, partial curve]"
O=C(Nc1ccc(-c2nc3ccccc3o2)c(O)c1)c1cc(-n2cnnc2)ccc1Cl,cell number change,,-54%
same,AC50,[2],"29.1 µM [falling, single point]"
same,AC50,[1],"29.1 µM [falling, single point]"
CCN(CC)S(=O)(=O)c1ccc(NC(=O)C(OC)c2ccccc2)cc1 (configuration not stated),cell number change,,0.272%
same,AC50,[1],"32.6 µM [rising, single point]"
Cc1cc(=O)oc(C)c1C(=O)NCC1COc2ccccc2O1 (configuration not stated),cell number change,,-1.37%
same,AC50,[2],"7.31 µM [rising, single point]"
same,AC50,[1],"3.26 µM [rising, full curve, poor fit]"
O=S(=O)(NCCSc1nnnn1-c1ccccc1)c1cccs1,AC50,[1],"1.84 µM [falling, partial curve, poor fit]"
COc1ccc(C(=O)Nc2cc(OC)c(NC(=O)c3ccco3)cc2OC)cc1,cell number change,,7.64%
same,AC50,[2],"0.731 µM [rising, full curve]"
same,AC50,[1],"3.66 µM [falling, single point]"
COc1ccc(/C=N/NC(=O)c2ccn[nH]2)cc1COc1ccc(Cl)cc1Cl,cell number change,,-7.09%
same,AC50,[1],"0.92 µM [rising, full curve, poor fit]"
C1=Nc2ccccc2CN1c1ccccc1,cell number change,,-11.1%
same,AC50,[1],"0.517 µM [rising, single point]"
Cn1cccc1C(=O)OCC(=O)Nc1ccc2c(c1)OCO2,cell number change,,23.2%
same,AC50,[1],"29.1 µM [rising, single point]"
Cc1cc(C)c(S(=O)(=O)NCC(=O)NCc2ccccn2)c(C)c1,AC50,[1],"2.24 µM [falling, partial curve]"
O=C(/C=C/c1ccccc1)Nc1ccc(CN2CCOCC2)cc1,cell number change,,12.2%
same,AC50,[1],"29.1 µM [rising, single point]"
COc1ccc(C(=O)COC(=O)c2ccc(Cl)nc2)c(OC)c1,cell number change,,15%
Cn1nc(C(C)(C)C)cc1C(=O)NCc1ccc(N2CCCC2=O)cc1,cell number change,,-51.6%
same,AC50,[2],"2.06 µM [falling, full curve]"
O=C(O)c1cccc(S(=O)(=O)NCCC(c2ccccc2)c2ccccc2)c1,AC50,[1],"0.184 µM [rising, full curve]"
CCN(CC)c1ccc(C(=O)N/N=C(\C)c2ccc(O)cc2)cc1,cell number change,,54.2%
same,AC50,[2],"0.00651 µM [rising, full curve, poor fit]"
same,AC50,[1],"32.6 µM [rising, partial curve, poor fit]"
CC1CC(C)CN(C(=O)C2CCCN(c3ncnc4c3nc3n4CCCCC3)C2)C1 (configuration not stated),AC50,[2],"3.66 µM [falling, single point]"
same,AC50,[1],"0.58 µM [falling, single point]"
COc1ccc(NC(=O)CN(C)C(=O)CN2C(=O)NC3(CCCCC3)C2=O)cc1,cell number change,,7.03%
CCN(CC)S(=O)(=O)c1cccc(NC(=O)COC(=O)c2n[nH]c(=O)c3ccccc23)c1,cell number change,,23.7%
COC(=O)c1ccccc1NC(=O)c1ccco1,cell number change,,74%
same,AC50,[2],"6.51 µM [rising, full curve]"
same,AC50,[1],"20.6 µM [rising, single point]"
COC(=O)C(=C/C=C/N1CCOCC1)C(=O)OC,cell number change,,-18.8%
same,AC50,[2],"6.51 µM [rising, single point]"
same,AC50,[1],"20.6 µM [falling, single point]"
O=C(CSc1nnc(-c2ccco2)o1)NC1CC2CCC1C2 (configuration not stated),AC50,[2],"6.51 µM [rising, single point]"
O=C1CCCc2ccccc2N1Cc1ccccc1,cell number change,,23.1%
same,AC50,[1],"0.103 µM [falling, single point]"
O=C(Nc1ccn(Cc2c(F)c(F)c(F)c(F)c2F)n1)c1ccc(COc2ccccc2Cl)cc1,cell number change,,24.7%
CCCC(=O)Nc1cc(OCC)c(NC(=O)NC2CCCCC2)cc1OCC,cell number change,,29%
same,AC50,[2],"0.184 µM [rising, full curve, poor fit]"
Cc1ccc2nc(NCc3ccccc3)c(C=O)c(=O)n2c1,cell number change,,13%
same,AC50,[1],"0.326 µM [rising, full curve, poor fit]"
Cc1ncc([N+](=O)[O-])n1Cc1ccc(Br)cc1,cell number change,,90.1%
same,AC50,[2],"23.1 µM [rising, partial curve]"
O=C(NC1CC1)c1ccc2c(c1)NC(=O)c1ccccc1S2,cell number change,,-47.1%
same,AC50,[2],"29.1 µM [falling, single point]"
same,AC50,[1],"0.092 µM [falling, full curve, poor fit]"
CC12CCC3c4ccc(O)cc4CCC3C1CC(O)C2O (configuration not stated),cell number change,,-33.5%
O=C(CCN1C(=O)/C(=C/c2ccccc2Cl)SC1=S)NC1C=CS(=O)(=O)C1 (configuration not stated),cell number change,,1.15%
same,AC50,[1],"29.1 µM [rising, single point]"
CN(c1ccccc1C(=O)N1CCN(c2ccccc2F)CC1)S(=O)(=O)c1ccccc1,cell number change,,1.16%
same,AC50,[1],"0.184 µM [rising, full curve, poor fit]"
Cc1cc(C)c2nc(N(CCCN(C)C)C(=O)c3ccc4c(c3)OCCO4)sc2c1,AC50,[1],"16.4 µM [falling, single point]"
CCCCCC(=O)Nc1ccc(C(=O)COC(=O)c2ccccn2)cc1,cell number change,,1.79%
same,AC50,[1],"0.461 µM [falling, single point]"
Cc1cc(C)n2nc(SCC(=O)N/N=C/c3ccccn3)nc2n1,cell number change,,13.4%
same,AC50,[1],"10.3 µM [rising, single point]"
O=C1c2ccccc2C(=O)c2cc(S(=O)(=O)Nc3ccccc3)ccc21,cell number change,,-0.74%
same,AC50,[1],"29.1 µM [rising, single point]"
C[C@@H](C(=O)Nc1ccc2ccccc2c1)[C@H]1C[C@]1(C)[C@H](NS(=O)(=O)c1ccc(-c2ccccc2)cc1)c1ccccc1,cell number change,,-0.42%
same,AC50,[1],"7.31 µM [rising, partial curve]"

# Random excerpt: four records from the list.
smiles,measurement,setting,value
Cn1cccc1C(=O)OCC(=O)Nc1ccc2c(c1)OCO2,cell number change,,23.2%
O=C(CSc1nncn1-c1ccccc1)Nc1ccccc1F,cell number change,,12.2%
COc1ccc(C(=O)Nc2cc(OC)c(NC(=O)c3ccco3)cc2OC)cc1,AC50,[1],"3.66 µM [falling, single point]"
O=C(/C=C/c1ccccc1)Nc1ccc(CN2CCOCC2)cc1,cell number change,,12.2%
